Experimental data from PMC5780493, “Epsin and Sla2 form assemblies through phospholipid interfaces” (Nature Communications, 2018).
Results are given in words; binding and its absence hold for the method and conditions named. Some entries that bind do so weakly or less than the wild type.

Molecular target: ENTH domain of epsin Ent1 from S. cerevisiae (S. cerevisiae) (UniProt Q12518)
Test: crystal structure; ENTH1 11 mg/ml; 0.2 M CaCl2, 25% v/v MPD, 0.1 M Tris pH 8.5; no PIP2, an MPD molecule displaces the α0 helix; both purified

B1: ENTH domain of epsin Ent1 from S. cerevisiae (domain or fragment, UniProt Q12518 1-154)
chain: MSKQFVRSAKNLVKGYSSTQVLVRNATSNDNHQVSKDSLIELAEKSYDSADFFEIMDMLDKRLNDKGKYWRHIAKALTVIDYLIRFGSENCVLWCRENLYIIKTLKEFRHEDDEGIDQGQIVRVKAKELTALLSDDERLNEERNMNIKGRNRKG
binding: binds
